These results are taken from article PMC5052522.

For at least one entry, the source does not settle the construct or the ends of the probe. For some of these results: Weaker means in comparison with the reference protein, sequence or condition of that experiment. At least one verdict rests on a figure or table, not on a statement of the authors. Where a protein sequence is shown, tags need not be part of it.

For data set [1], the target named is T1, C-reactive protein (CRP standard protein, recombinant) (human) (UniProt P02741).
T1 sequence (looked up, limits assumed): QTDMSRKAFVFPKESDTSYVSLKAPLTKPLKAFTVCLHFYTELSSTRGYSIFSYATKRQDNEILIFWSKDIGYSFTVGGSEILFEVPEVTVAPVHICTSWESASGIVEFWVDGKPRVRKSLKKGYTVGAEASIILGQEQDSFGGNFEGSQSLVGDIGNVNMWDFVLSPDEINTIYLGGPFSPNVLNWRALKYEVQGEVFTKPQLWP
Nature of the data set: capture of aptamer-FAM PBMCs on immobilized CRP in microfluidic channel. As to conditions: diluted heparinized blood, RBC excluded; commercial protein; label: 5'-biotin, 3'-FAM (5-carboxyfluorescein); single-stranded DNA.

Data set [2] deals with T1, C-reactive protein (CRP standard protein, recombinant) (human). Nature of the data set: capture by aptamer-conjugated PBMCs, sandwich fluorescence. Conditions: commercial protein, label: 5'-biotin, single-stranded DNA.
The target is the same in data set [3]. The experiment in a line: cited range. Conditions: commercial protein; label: 5'-biotin; single-stranded DNA.

On to “GGCAGGAAGACAAACACACAAGCGGGTGGGTGTGTACTATTGCAGTATCTATTCTGTGGTCTGTGGTGCTGT [CRP ssDNA aptamer, 72-mer, 5'-biotin, 3'-FAM]”, for which the binding result in data set [1] is listed as “binds”.

Consider “GGCAGGAAGACAAACACACAAGCGGGTGGGTGTGTACTATTGCAGTATCTATTCTGTGGTCTGTGGTGCTGT [CRP ssDNA aptamer, 72-mer, 5'-biotin]”, for which the binding result in data set [2] (CRP preincubated with 10 mM CaCl2, CRP 0-30 mg/L, LOD 0.05 mg/L) is recorded as “binds”; in data set [2] (no added Ca2+, signal at least 20 times lower than CRP/Ca2+), “binds more weakly”; in data set [3] it was “binds”.
